Results: article doi:10.1101/2021.03.11.434334
These are yes or no findings as the source states them, for the method shown. In cells and extracts the contact can be indirect. Some entries that bind do so weakly or less than the wild type.

The chains behind the UniProt entries cited, without tags or fusion partners.
UniProt Q9NQL2: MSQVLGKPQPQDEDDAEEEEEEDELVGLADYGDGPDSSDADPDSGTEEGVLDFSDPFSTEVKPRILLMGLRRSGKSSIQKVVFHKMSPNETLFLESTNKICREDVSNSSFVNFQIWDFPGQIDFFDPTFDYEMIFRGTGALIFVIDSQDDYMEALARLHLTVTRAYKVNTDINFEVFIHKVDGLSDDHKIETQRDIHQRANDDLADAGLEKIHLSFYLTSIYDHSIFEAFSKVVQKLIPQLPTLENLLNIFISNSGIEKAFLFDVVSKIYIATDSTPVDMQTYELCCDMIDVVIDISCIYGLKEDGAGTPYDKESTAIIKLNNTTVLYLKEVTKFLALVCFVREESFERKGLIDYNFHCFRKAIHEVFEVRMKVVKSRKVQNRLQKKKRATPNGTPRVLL
UniProt Q7L523: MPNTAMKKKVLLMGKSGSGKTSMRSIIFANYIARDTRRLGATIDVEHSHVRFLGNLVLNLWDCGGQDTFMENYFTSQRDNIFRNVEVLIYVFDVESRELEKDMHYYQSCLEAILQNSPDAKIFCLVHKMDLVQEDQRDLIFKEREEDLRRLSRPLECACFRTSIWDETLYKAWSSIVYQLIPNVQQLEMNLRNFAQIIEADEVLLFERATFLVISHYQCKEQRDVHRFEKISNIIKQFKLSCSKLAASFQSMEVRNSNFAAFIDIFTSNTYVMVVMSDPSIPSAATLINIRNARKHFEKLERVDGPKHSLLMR

Target: RagD (Rag GTPase D), wild type (human) (UniProt Q9NQL2)
Experiment: co-IP

binding: binds
Substance: RagA (from UniProt Q7L523 1-313)
